Assay: Hydrogel formation and gelation time sweep of h9e with commercial mouse blood
Procedure: About 150 μL of the appropriate wt % of peptide solution was added to 150 μL of commercial mouse blood in a small vial. The mixture was pipetted 5 times to ensure continuity and observed for visual hydrogel formation. Visual observation of hydrogel formation was recorded via a Nikon Coolpix L22 camera (FIG. 9).
Hydrogel gelation time sweep (instantaneous): A time sweep was conducted on the hydrogel and commercial mouse blood mixture. 150 μL of the appropriate wt % of peptide solution was added to 150 μL of commercial mouse blood in a small vial. The mixture was pipetted about 5 times to ensure continuity and added to the rheometer for evaluation. Both storage and loss moduli, G′ and G″ respectively, of the h9e/blood hydrogel were determined using a C-VOR 150 rheometer (Malvern Instruments, Malvern, Worcestershire, United Kingdom). A plate 20 mm in diameter was used with 1% strain and frequency of 1 Hz at a 37° C. temperature for 30 minutes.
Hydrogel stability gelation time sweep (24 hours post gelatinization): A time sweep was conducted on the hydrogel and commercial mouse blood mixture. 24 hours post gelation. 150 μL of the appropriate wt % of peptide solution was added to 150 μL of commercial mouse blood in a small vial. The mixture was pipetted about 5 times to ensure continuity and stored in a CO2 incubator for 24 hours (Nuaire, Plymouth, Minn., United States). After 24 hours of a hydrogel formation, the hydrogel was added to the rheometer for evaluation. Both storage and loss moduli, G′ and G″ respectively, of the h9e/blood hydrogel was determined using a C-VOR 150 rheometer (Malvern Instruments, Malvern, Worcestershire, United Kingdom). A plate 20 mm in diameter was used with 1% strain and frequency of 1 Hz at a 37° C. temperature for 30 minutes

H-FLIVIGSIIGPGGDGPGGD-NH2 [h9e, FLIVIGSIIGPGGDGPGGD]
visual hydrogel formation (1% and 2% wt h9e): form a stable hydrogel within a few min | visual hydrogel formation (1%, 2%, 3%, 4%, 5% wt h9e solution with commercial mouse blood): formed a visible hydrogel | visual hydrogel formation (4% and 5% wt h9e): stable hydrogels instantly | time to gel strength above 100 Pa (all h9e % wt concentrations except 1% wt): 1 to 3 s

— patent publication US11135163B2, “Peptide hydrogel properties and its applications” (Kansas State University Research Foundation, priority 2014, dated 2021)
